No constants are given. Whether binding was seen depends on the method and setting. Binding seen in cells or lysates may run through a third protein. Some results given as binding are weak or reduced against the parent protein; the word gives no strength. Where a sequence is shown, tags or fusion partners need not be part of it.
What was measured:
[1] = biological target: T1, N1-gLuc-RBM39 (human) (UniProt Q14498); test: split reporter; gaussia luciferase proximity complementation assay (gPCA) in HEK-293 cells transfected with N1-gLuc-RBM39 and N2-gLuc-c-Jun, separately or together; cisplatin added after 24 h for a further 24 h; luciferase activity read in lysate
T1 sequence: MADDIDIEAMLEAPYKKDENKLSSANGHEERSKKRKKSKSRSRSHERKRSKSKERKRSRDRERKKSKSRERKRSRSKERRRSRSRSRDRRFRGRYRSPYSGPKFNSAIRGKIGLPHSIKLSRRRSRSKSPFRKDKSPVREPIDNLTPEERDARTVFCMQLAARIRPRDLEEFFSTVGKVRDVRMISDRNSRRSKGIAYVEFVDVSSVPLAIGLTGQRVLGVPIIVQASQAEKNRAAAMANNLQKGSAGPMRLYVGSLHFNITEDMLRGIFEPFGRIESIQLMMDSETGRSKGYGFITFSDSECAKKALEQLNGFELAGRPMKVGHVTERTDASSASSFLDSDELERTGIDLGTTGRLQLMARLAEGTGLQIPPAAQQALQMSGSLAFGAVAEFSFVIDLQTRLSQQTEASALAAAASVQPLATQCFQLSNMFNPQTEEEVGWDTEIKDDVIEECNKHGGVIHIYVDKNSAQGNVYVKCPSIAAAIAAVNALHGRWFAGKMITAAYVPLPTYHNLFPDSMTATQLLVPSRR

Sequences of proteins named here, by UniProt entry; tags and fusion partners are left off.
UniProt P05412: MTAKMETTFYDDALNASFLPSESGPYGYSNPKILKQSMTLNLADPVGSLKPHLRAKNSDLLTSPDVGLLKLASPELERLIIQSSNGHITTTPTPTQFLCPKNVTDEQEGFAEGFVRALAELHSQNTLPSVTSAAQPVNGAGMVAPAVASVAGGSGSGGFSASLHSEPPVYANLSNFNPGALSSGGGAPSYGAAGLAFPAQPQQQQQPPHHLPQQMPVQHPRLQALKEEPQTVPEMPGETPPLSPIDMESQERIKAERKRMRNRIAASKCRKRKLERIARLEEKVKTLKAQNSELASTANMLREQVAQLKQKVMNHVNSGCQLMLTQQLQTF

[2] = biological target: T2, Flag-RBM39 (RNA binding motif protein 39) (human) (UniProt Q14498); test: co-IP; Flag-RBM39 precipitated with Flag antibody and protein A/G magnetic beads from 1 mg MCF-7 extract (20 mM Tris-HCl pH 7.5, 150 mM NaCl, 1% Triton X-100, 10% glycerol) in presence of RNAse A, 4°C; cells treated with cisplatin (50 μM, 24 h) or mock-treated, with or without JNK-IN-8 (1 μM) 3 h before cisplatin; western blot
T2 sequence: T1 sequence

[3] = biological target: T2, Flag-RBM39 (RNA binding motif protein 39) (human); test: co-IP; as a1, mock-treated MCF-7 cells (no cisplatin); Flag-RBM39 precipitated with Flag antibody in presence of RNAse A; western blot

| binding [1] | binding [2] | Substance | binding [3] |
| --- | --- | --- | --- |
| binds | – | N2-gLuc-c-Jun (from UniProt P05412 1-331) | – |
| – | binds | c-Jun (from UniProt P05412 1-331) | no binding (condition: cells without cisplatin) |
